Reference: patent publication US20210181182A1, “METHOD FOR IDENTIFICATION OF PERTURBAGENS OF PARTICULAR BIOLOGICAL PROCESSES AND CELL SYSTEMS WITHIN LIVING CELLS” (priority 2018, published 2021)

Tested on: mitochondrial electron transport chain (mETC)
Assay: FACTORIAL assay: similarity of TFAP to the consensus (invariant) mETC TFAP
Type: cell-based, human
Settings: 24 h

CCOC(=O)N1CCC(=C2c3ccc(Cl)cc3CCc3cccnc32)CC1 [Loratadine, reference compound]
Pearson correlation with the mETC TFAP, r: 0.814
